Data on one substance can be found in article PMC7949131.

Chains of the proteins cited; added tags and fusions are not shown.
UniProt P14600: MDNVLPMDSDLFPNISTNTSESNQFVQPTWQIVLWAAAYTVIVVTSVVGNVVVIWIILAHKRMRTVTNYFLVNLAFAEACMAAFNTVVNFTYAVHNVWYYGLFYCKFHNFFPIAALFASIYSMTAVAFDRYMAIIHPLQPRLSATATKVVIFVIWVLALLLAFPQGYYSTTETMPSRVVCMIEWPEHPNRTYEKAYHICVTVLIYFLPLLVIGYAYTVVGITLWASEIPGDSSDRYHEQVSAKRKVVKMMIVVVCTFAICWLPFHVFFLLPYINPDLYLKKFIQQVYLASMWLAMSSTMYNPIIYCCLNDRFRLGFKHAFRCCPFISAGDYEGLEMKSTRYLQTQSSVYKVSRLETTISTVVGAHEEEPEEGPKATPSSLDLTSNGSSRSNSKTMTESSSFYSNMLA
UniProt P29067: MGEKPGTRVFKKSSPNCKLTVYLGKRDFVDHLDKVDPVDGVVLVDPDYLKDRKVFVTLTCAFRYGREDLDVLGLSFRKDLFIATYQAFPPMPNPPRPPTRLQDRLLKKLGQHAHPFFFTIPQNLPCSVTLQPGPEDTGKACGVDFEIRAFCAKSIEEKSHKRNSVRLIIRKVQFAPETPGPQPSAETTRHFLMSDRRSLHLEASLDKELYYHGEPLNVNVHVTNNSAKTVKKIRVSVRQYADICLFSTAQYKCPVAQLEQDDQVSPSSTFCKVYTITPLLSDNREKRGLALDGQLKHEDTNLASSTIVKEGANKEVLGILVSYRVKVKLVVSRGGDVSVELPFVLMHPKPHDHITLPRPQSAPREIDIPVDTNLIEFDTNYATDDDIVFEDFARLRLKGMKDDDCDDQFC

In the experiment the target is NK1R-RLuc8 (rat) (UniProt P14600). As to the kind of experiment: FRET or BRET; BRET in live HEK293 cells cotransfected with 1 μg NK1R-RLuc8 and 4 μg β-arrestin 2-YFP; 1 nM SP added after baseline, read every 1 min for 25 min; coelenterazine h 5 μM, HBSS. A general note: Bioluminescence resonance energy transfer reports proximity on the nanometre scale.

No constants are given. Whether binding was seen depends on the method and setting. Binding seen in cells or lysates may run through a third protein. Some entries that bind do so weakly or less than the wild type.

Regarding “β-arrestin 2-YFP (from UniProt P29067 1-410)”, the binding entry is listed as “binds”.
